{
  "source": "paper doi:10.1101/2021.05.03.442108",
  "target": "IAA1 (Arabidopsis thaliana) (UniProt P49677)",
  "experiment": "split reporter",
  "note": "Results are given in words; binding and its absence hold for the method and conditions named. Binding seen in cells or lysates may run through a third protein. Some results given as binding are weak or reduced against the parent protein; the word gives no strength.",
  "data": [
    {"binder": "IAA1 (protein, UniProt P49677 1-168) MEVTNGLNLKDTELRLGLPGAQEEQQLELSCVRSNNKRKNNDSTEESAPPPAKTQIVGWPPVRSNRKNNNNKNVSYVKVSMDGAPYLRKIDLKMYKNYPELLKALENMFKFTVGEYSEREGYKGSGFVPTYEDKDGDWMLVGDVPWDMFSSSCQKLRIMKGSEAPTAL", "values": [
      {"measurement": "binding", "result": "binds"}
    ]}
  ]
}
